Data taken from the supplement of paper PMC5662767.
The list shows a part of the results. Plates or batches differ in their baseline, so values are only roughly comparable.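 Smoothened with circularly permuted GFP in its cytoplasmic tail is carried by a clonal Drosophila S2 line; fluorescence appears when Hh-driven phosphorylation opens an inhibitory loop. Per-cell signal, read by flow cytometry, was scaled to Hh-stimulated untreated cells. Hits were consistent fluorescence-shifting groups of inhibitors sharing pathway targets, not single compounds.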

Test system: Drosophila S2 cl14 SmoIP sensor cells
Assay: normalized SmoIP GFP fluorescence (untreated unstimulated = 0%, untreated Hh-stimulated = 100%); higher = more Smo activation sensor fluorescence
Conditions: stimulation: mock conditioned medium (-Hh); compound concentration: 15 uM; 24 h

| SMILES | normalized SmoIP GFP fluorescence [%] |
| --- | --- |
| O=C(NCc1ccc(Oc2ccccc2)cc1)c1nc(-c2cc(Br)c(O)c(Br)c2)no1 [iowh032] | 27.5 |
| CC1C(=O)OC2C(O)C34C5CC(C(C)(C)C)C36C(OC(=O)C6O)OC4(C(=O)O5)C12O (stereo not drawn) [Ginkgolide-B] | -1.56 |
| Nc1nnc(-c2cccc(Cl)c2Cl)c(N)n1 [lamotrigine] | -0.378 |
